Results are given in words; binding and its absence hold for the method and conditions named.
Target: T1, Bacillus subtilis PhoD, mature domain (Bacillus subtilis strain 168), P42251
T1 chain: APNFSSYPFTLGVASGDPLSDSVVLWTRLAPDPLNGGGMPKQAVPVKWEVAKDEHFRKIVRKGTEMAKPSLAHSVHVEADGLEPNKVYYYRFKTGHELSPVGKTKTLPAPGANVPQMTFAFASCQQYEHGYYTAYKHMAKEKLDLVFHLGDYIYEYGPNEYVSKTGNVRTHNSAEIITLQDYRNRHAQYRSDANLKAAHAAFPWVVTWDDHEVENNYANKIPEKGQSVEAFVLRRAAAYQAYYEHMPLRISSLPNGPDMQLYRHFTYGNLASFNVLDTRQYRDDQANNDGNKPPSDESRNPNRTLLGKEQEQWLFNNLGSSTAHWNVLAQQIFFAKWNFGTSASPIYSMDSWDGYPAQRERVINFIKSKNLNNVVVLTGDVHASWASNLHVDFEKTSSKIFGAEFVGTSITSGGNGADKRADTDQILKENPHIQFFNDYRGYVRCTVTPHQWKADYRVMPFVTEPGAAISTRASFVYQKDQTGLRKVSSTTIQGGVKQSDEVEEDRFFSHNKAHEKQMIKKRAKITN
Experiment: SEC-MALS; size-exclusion multi-angle laser light scattering; 20 mM Hepes, pH 7.5, 400 mM NaCl, 2 mM calcium acetate; flow rate 0.4 ml/min; both purified
Conditions: remark: other sources report otherwise

binding: no binding
B1: Bacillus subtilis PhoD, mature domain, P42251 57-583 (enzyme)
chain: T1 chain

— publication PMC4223295, “Crystal Structure of the Bacillus subtilis Phosphodiesterase PhoD Reveals an Iron and Calcium-containing Active Site” (The Journal of Biological Chemistry, 2014)
